Reference: patent publication US20230381327A1 (DEBIOPHARM RESEARCH & MANUFACTURING S.A., priority 2020, published 2023)

Experiment: general procedure: Fmoc solid-phase peptide synthesis; Rink Amide AM resin (loading: 0.57 mmol/g); DIC
Settings: for purity (crude or final not stated): whole synthesis; for purity (crude or final not stated) / final HPLC purity / crude HPLC purity: UPLC-MS, elution monitored at 214 nm (214 and 280 nm for method 2)
[1] = one disulfide bridge, sequence written open
[2] = conjugation step, one disulfide bridge
[3] = late stage modification step, one disulfide bridge

## A3Dap-PEG1
One disulfide bridge
  purity (crude or final not stated): 90%

## Ac-DCAKHLGELVWCT-NH2
[1]
  purity (crude or final not stated): 99%

## Ac-DCAWDabLGELVWCT-NH2
  purity (crude or final not stated): 100%

## Ac-DCAWH(D-Dap)GELVWCT-NH2
[1]
  purity (crude or final not stated): 95%

## Ac-DCAWHDabGELVWCT-NH2
[1]
  purity (crude or final not stated): 90%

## Ac-DCAWHDapGELVWCT-NH2
[1]
  purity (crude or final not stated): 100%

## Ac-DCAWHKGELVWCT-NH2
[1]
  purity (crude or final not stated): 100%

## Ac-DCAWHLGDapLVWCT-NH2
[1]
  purity (crude or final not stated): 98%

## Ac-DCAWHLGEKVWCT-NH2
[1]
  purity (crude or final not stated): 99%

## Ac-DCAWHLGELKWCT-NH2
[1]
  purity (crude or final not stated): 100%

## Ac-DCAWHLGELVKCT-NH2
[1]
  purity (crude or final not stated): 98%

## Ac-DCAWHLGELVWCK-NH2
[1]
  purity (crude or final not stated): 99%

## Ac-DCAWHLGKLVWCT-NH2
[1]
  purity (crude or final not stated): 99%

## Ac-DCAWHLKELVWCT-NH2
[1]
  purity (crude or final not stated): 86%

## Ac-DCAWHOrnGELVWCT-NH2
[1]
  purity (crude or final not stated): 100%

## Ac-DCAWH[Dap]GQLVWCT-NH2 (cysteine pairing not given here)
  purity (crude or final not stated): 100%

## Ac-DCAWH[Orn]GQLVWCT-NH2 (cysteine pairing not given here)
  purity (crude or final not stated): 54%

## Ac-DCAWKLGELVWCT-NH2
[1]
  purity (crude or final not stated): 98%

## Ac-DCAWKLGQLVWCT-NH2
[1]
  purity (crude or final not stated): 99%

## Ac-DCAW[Dab]LGQLVWCT-NH2 (cysteine pairing not given here)
  purity (crude or final not stated): 99%

## Ac-DCAW[Dap]LGQLVWCT-NH2 (cysteine pairing not given here)
  purity (crude or final not stated): 99%

## Ac-DCAW[Orn]LGQLVWCT-NH2 (cysteine pairing not given here)
  purity (crude or final not stated): 98%

## Ac-DCDapWHLGELVWCT-NH2
  purity (crude or final not stated): 98%

## Ac-DCKWHLGELVWCT-NH2
[1]
  purity (crude or final not stated): 99%

## Ac-DCOrnWHLGELVWCT-NH2
  purity (crude or final not stated): 98%

## Ac-DC[Dap]WH[Orn]GELVWCT-NH2 (cysteine pairing not given here)
  purity (crude or final not stated): 92%

## Ac-DChKWHLGELVWCT-NH2
  purity (crude or final not stated): 94%

## Ac-KCAWHLGELVWCT-NH2
[1]
  purity (crude or final not stated): 98%

## Ac-PEG20-DCAWHOrnGELVWCT-NH2
[1]
  purity (crude or final not stated): 88%

## Ac-RGNCAYHKGQIIWCTYH-NH2
[1]
  purity (crude or final not stated): 99%

## Ac-RGNCAYH[Orn]GQIIWCTYH-NH2 (cysteine pairing not given here)
  purity (crude or final not stated): 98%

## BocHN-Fc-III—(OtBu)2-L6Orn-PEG11-N3
Conjugation step
  conjugation yield: 40% yield
  final HPLC purity: UV purity 95%

## H-DCAWHLGELVWCT-NH2
[1]
  purity (crude or final not stated): >95%

## L6Dap-(CH2)2-ester-DOTA
[2]
  final HPLC purity: UV purity 100%
  conjugation yield: 57% yield

## L6Dap-(CH2)2-ester-DTPA
[2]
  final HPLC purity: UV purity 84%
  conjugation yield: 59% yield

## L6Dap-(CH2)2-ester-NH2
Late stage modification step
  step yield: 99% yield
  crude HPLC purity: UV purity 79%

## L6Dap-(CH2)2-ester-NHBoc
Late stage modification step
  step yield: 53% yield
  final HPLC purity: UV purity 86%

## L6Orn(-carbonate-NH2)-PEG24
Late stage modification step
  crude HPLC purity: 100% UV purity

## L6Orn(-carbonate-NHBoc)-PEG24
Late stage modification step
  step yield: 77% yield
  final HPLC purity: 100% UV purity

## L6Orn(-carbonate-PDB-DM4)-PEG24
[2]
  final HPLC purity: 100% UV purity
  conjugation yield: 64% yield

## L6Orn(-carbonate-S-Mmt)-PEG24
Late stage modification step
  step yield: 82% yield
  final HPLC purity: 100% UV purity

## L6Orn(-carbonate-Vedotin)-PEG24
[2]
  final HPLC purity: 100% UV purity
  conjugation yield: 77% yield

## L6Orn-PEG11-N3
[3]
  crude HPLC purity: UV purity 75%
  step yield: 51% yield

## RGNCAYHK(SuOH)GQIIWCTYH
Late stage modification step
  step yield: 43% yield
  final HPLC purity: 99% UV purity

## RGNCAYHOrn(SuOH)GQIIWCTYH
Late stage modification step
  step yield: 36% yield
  final HPLC purity: 99% UV purity

## mPEG24-DCAWHOrnGELVWCT-NH2
[1]
  purity (crude or final not stated): 98%

Non-standard residues stand in square brackets, D forms with d. Orn = NCCC[C@H](N)C(=O)O; Dab = NCC[C@H](N)C(=O)O; Dap = NC[C@H](N)C(=O)O
